# The list shows a part of the results.
# By UniProt entry, the sequences of proteins in these tests, tags left out.
# UniProt Q6ZW49, whole entry, looked up: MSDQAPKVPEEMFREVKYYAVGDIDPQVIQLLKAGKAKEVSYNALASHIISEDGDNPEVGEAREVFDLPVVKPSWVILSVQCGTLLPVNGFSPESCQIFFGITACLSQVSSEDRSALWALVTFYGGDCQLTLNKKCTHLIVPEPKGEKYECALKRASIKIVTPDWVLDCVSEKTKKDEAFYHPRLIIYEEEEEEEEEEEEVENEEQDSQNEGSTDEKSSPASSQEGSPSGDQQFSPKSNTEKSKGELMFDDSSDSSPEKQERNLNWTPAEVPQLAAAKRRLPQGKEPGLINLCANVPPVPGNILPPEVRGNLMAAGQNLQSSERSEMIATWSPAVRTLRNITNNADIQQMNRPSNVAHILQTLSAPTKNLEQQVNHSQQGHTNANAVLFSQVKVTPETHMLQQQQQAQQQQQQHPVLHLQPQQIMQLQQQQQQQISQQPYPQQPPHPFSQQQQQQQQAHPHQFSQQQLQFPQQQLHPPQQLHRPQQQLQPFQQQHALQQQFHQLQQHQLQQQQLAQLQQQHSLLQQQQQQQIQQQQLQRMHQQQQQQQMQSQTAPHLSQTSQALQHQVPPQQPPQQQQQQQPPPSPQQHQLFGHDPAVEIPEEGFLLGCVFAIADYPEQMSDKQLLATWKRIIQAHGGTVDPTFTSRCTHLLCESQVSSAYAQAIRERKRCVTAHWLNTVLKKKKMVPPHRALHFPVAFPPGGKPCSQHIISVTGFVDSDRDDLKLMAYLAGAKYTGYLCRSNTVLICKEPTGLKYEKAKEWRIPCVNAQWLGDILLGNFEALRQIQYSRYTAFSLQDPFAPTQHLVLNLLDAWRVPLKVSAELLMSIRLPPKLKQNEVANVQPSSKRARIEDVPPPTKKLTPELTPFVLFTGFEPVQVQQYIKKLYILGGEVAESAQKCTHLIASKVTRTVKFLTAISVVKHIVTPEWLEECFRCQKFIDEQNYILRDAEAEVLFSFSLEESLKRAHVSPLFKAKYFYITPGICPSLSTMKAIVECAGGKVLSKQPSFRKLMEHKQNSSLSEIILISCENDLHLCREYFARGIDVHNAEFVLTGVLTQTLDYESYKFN
# UniProt Q86U86, whole entry, looked up: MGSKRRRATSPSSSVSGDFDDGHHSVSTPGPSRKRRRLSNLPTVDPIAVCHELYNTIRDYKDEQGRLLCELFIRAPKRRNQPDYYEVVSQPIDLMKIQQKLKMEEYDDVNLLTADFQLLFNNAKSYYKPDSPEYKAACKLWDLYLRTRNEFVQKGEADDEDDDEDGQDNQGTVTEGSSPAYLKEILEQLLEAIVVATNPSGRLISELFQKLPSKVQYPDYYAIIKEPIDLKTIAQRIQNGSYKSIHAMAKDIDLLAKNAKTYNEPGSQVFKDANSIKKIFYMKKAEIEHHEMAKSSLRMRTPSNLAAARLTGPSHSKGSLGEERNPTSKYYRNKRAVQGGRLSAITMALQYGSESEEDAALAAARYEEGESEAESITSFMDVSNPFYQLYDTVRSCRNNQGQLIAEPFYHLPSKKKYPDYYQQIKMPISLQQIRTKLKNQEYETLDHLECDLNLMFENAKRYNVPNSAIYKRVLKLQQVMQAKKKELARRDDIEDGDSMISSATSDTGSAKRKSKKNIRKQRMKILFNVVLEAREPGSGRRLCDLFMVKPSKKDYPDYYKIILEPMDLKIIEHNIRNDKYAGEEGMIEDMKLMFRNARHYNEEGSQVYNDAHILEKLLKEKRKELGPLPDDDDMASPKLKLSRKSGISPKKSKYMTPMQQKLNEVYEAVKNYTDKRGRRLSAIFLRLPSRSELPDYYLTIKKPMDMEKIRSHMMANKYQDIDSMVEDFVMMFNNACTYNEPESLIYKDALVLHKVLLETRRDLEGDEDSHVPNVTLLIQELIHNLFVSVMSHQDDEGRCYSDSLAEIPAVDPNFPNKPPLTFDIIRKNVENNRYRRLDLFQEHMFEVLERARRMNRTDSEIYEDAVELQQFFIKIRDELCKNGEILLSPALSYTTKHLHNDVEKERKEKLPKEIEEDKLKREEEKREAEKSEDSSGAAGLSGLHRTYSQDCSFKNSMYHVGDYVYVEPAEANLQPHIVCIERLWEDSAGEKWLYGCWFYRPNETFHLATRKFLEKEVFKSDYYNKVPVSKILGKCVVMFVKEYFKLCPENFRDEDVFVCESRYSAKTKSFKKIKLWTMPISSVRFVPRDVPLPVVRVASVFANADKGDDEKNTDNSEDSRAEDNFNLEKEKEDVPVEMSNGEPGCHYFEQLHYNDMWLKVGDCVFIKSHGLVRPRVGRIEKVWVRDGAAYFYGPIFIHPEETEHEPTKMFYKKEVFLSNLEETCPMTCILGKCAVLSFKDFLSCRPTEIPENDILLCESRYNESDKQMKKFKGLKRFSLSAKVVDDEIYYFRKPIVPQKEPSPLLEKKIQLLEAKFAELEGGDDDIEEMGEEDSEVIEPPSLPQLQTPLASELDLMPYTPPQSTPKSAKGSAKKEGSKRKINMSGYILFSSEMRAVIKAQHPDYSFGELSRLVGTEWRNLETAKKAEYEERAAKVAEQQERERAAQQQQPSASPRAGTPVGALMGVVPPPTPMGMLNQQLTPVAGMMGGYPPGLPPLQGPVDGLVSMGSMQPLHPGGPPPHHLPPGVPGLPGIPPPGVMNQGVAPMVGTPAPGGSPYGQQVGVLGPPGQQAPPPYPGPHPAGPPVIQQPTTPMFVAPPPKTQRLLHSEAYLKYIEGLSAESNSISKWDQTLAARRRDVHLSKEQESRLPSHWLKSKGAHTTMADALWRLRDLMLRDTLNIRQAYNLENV
# Legend:
# [1] = target: PAXIP1_Q6ZW49_933_HIVTPEWLEECFR (UniProt Q6ZW49); experiment: probe-labelled cysteine peptide fold change vs DMSO (competition) (log2 fold change); higher = less target engagement (more negative = stronger competition); conditions: THP-1, incubation time: 4 h
# [2] = target: PBRM1_Q86U86_979_NSMYHVGDYVYVEPAEANLQPHIVCIER (UniProt Q86U86); experiment: as above; conditions: THP-1, incubation time: 4 h
# 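Also: competitive profiling in live THP-1 cells: cysteine peptides tagged with an iodoacetamide desthiobiotin (IA-DTB) probe, intensity after compound treatment relative to DMSO-treated cells.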
compound,measurement,setting,value
Cc1cc(C(=O)N2CCCN(C(=O)CCl)CC2)ccc1-c1ccccc1 [compound 10],probe-labelled cysteine peptide fold change,[1]; 10 µM,-0.00632
same,probe-labelled cysteine peptide fold change,[1]; 50 µM,0.0808
same,probe-labelled cysteine peptide fold change,[2]; 10 µM,0.294
same,probe-labelled cysteine peptide fold change,[2]; 50 µM,-0.29

# From the supplement of paper PMC12067093, “Discovery and optimisation of a covalent ligand for TRIM25 and its application to targeted protein ubiquitination” (Chemical Science, 2025)
